Source: paper PMC10936184
No constants are given. Whether binding was seen depends on the method and setting.

Amino acid sequences for entries named in this document (tags omitted). A change or cut given only in a name is not applied to a line headed by its entry.
UniProt P33046: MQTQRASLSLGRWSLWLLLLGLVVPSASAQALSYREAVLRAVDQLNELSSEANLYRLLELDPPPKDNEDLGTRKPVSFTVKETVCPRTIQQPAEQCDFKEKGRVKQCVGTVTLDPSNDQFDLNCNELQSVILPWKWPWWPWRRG

Biological target: MipA-His6 (Pseudomonas aeruginosa)
Assay: condition: up to 1:4 molar ratio, which corresponds to 25 µM; nano-DSF; thermal shift: pure MipA alone or incubated for 2 h at room temperature with ligand at molar ratios from 1:1 to 1:40 (up to 200 µM), heated from 20°C to 95°C; buffer with 0.1% LAPAO; Tm from F350:F330; both purified

In the case of ILPWKWPWWPWRRG (peptide, UniProt P33046 131-144) [indolicidin], the binding is reported as “no binding”.
